From PubChem BioAssay AID504327 (National Center for Advancing Translational Sciences (NCATS), 2011)
Among all 390,000 compounds or so, about 820 (0.21%) were called active. Inconclusive results, whose numbers are uncertain, are shown with a selection of clear calls. Calls come from the whole dose curve; as a rule, active = well fitted inhibition curve with a large enough effect; inconclusive = small, poorly fitted or top-dose-only effect, or another doubt; inactive = no such curve, though single readings can be large or run the other way. A potency beside an inconclusive call is a rough fit, not a confirmed value.

Sequences of proteins named here, by UniProt entry; tags and fusion partners are left off.
UniProt Q92830, whole entry, looked up: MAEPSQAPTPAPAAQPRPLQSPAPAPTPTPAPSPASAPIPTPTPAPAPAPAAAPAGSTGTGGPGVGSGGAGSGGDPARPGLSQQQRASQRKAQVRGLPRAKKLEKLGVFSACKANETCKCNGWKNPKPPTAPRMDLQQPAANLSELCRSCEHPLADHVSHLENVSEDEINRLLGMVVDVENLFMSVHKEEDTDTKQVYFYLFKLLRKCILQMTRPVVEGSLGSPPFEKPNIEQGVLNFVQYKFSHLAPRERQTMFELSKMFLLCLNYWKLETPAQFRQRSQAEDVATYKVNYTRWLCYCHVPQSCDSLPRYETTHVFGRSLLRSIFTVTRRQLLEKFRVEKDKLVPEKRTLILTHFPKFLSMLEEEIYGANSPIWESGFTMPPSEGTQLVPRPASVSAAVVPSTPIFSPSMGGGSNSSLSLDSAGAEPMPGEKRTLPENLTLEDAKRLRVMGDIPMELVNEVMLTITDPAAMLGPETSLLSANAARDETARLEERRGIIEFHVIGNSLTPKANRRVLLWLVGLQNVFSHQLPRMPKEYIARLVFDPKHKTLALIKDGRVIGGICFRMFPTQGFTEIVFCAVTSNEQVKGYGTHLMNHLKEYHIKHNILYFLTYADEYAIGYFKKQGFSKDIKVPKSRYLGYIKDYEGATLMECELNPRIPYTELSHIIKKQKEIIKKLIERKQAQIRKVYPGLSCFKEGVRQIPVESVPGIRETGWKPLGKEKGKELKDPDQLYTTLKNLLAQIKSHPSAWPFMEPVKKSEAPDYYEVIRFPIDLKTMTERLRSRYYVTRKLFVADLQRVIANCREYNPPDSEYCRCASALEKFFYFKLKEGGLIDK

Biological target: Histone acetyltransferase KAT2A (Homo sapiens) (UniProt Q92830)
Assay: qHTS Assay for Inhibitors of GCN5L2
Conditions: GCN5L2 HAT assay, ThioGlo1 CoA-SH fluorescence; activity change, negative = inhibition: at 58.9 µM (top of the series) unless noted
Method in brief: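 Compounds, pin-transferred from DMSO stocks, meet 20nM GCN5L2 for 15 min before the reaction begins with H3(1-25) peptide (75uM) and acetyl-CoA (70uM). Thiol-reactive ThioGlo1 reports CoA release over 20 min at room temperature.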
% is set by controls: 0 for no effect and ±100 for the full control effect; potency is the fitted concentration of half-maximal effect.

SMILES	Potency	activity change, negative = inhibition
Cc1nc(SCC(C)C)[nH]c(=O)c1Cc1ccccc1	inconclusive: 22.4 µM [inhibitor, single point]	
Cc1ccc(-c2csc3ncn(-n4c(C)ccc4C)c(=O)c23)o1	inconclusive: 39.8 µM [inhibitor, single point]	
Cc1cc(C(=O)N2CCCC(N3CCN(c4cccc(C(F)(F)F)c4)CC3)C2)c(C)o1 (centres undefined)	inconclusive: 8.91 µM [inhibitor, single point]	
COc1ccccc1CNC(=O)CCn1nc(C)c2c(C)n(-c3ccccc3)nc2c1=O	inconclusive: 0.794 µM [inhibitor, single point]	
COc1ccc(CCN(C)C(=O)c2ccc(COc3ccccc3)o2)cc1OC	inconclusive: 39.8 µM [inhibitor, partial curve]	
CSC1=NS(=O)(=O)c2c(C)nn(C)c2S1	active: 28.2 µM	
CC(=O)Nc1ccc(S(=O)(=O)N(C)Cc2cnn(C)c2)cc1	inconclusive: 39.8 µM [inhibitor, single point]	
Nc1nc(SCc2ccc(Br)cc2)n[nH]1	inconclusive: 0.794 µM [inhibitor, single point]	
CCN1CCCC1CN(Cc1cc2ccc(C)cc2[nH]c1=O)C(=S)Nc1ccc(OC)cc1 (centres undefined)	inactive	
O=c1cc(-c2ccccc2Cl)oc2c(NS(=O)(=O)c3cc(Cl)cc(Cl)c3O)ccc(O)c12	active: 31.6 µM	
CCc1c(CN2CCN(c3cccc(C)c3C)CC2)csc1C	inactive	
O=S(=O)(c1ccccc1)N1CCC2(CCN(c3ccc(-c4ccccc4)cc3)CC2)CC1	inactive	
N#Cc1cccc(NC(=O)N2CC3(CCN(C(=O)c4ccco4)CC3)C2)c1	inactive	
Cc1ccc(CNC(=O)Nc2cccs2)cc1	inactive	
Cn1cc(CNCC2CCCO2)c(-c2ccc(Oc3ccccc3)cc2)n1 (centres undefined)	inconclusive: 25.1 µM [inhibitor, partial curve]	
O=C(Nc1cccc(-c2nc3ccccc3c(=O)o2)c1)c1ccccc1	inconclusive: 39.8 µM [inhibitor, single point]	
O=C1CCC/C1=c1\s/c(=C\c2cccnc2)c(=O)n1-c1ccccc1	inactive	
COc1ccc(-c2cc(-c3nnc(COC(=O)C4CC4)o3)c3ccccc3n2)cc1OC	inconclusive: 39.8 µM [inhibitor, single point]	
Cc1cccc(C)c1CC(=O)N1CCOCC1	inconclusive: 39.8 µM [inhibitor, single point]	
Nc1ccc(/C=C/c2ccc(N)cc2S(=O)(=O)O)c(S(=O)(=O)O)c1	active: 12.6 µM	
CCOc1cc(N)c(Cl)cc1C(=O)NCC1CN(Cc2ccc(F)cc2)CCO1 (centres undefined)	inconclusive: 0.631 µM [inhibitor, full curve, poor fit]	
COc1ccc(NC(=O)CSc2ccc(-c3ccco3)nn2)c(OC)c1	inconclusive: 31.6 µM [inhibitor, single point]	
O=C1C(Cl)=C(Nc2ccc3cn[nH]c3c2)C(=O)c2ccccc21	inactive	

3 compounds from above, sorted by length of the SMILES, descending:
SMILES	Potency	activity change, negative = inhibition
O=C1CCC/C1=c1\s/c(=C\c2cccnc2)c(=O)n1-c1ccccc1	inactive	
Cn1cc(CNCC2CCCO2)c(-c2ccc(Oc3ccccc3)cc2)n1 (centres undefined)	inconclusive: 25.1 µM [inhibitor, partial curve]	
CCc1c(CN2CCN(c3cccc(C)c3C)CC2)csc1C	inactive	

Further structures

SMILES	Potency	activity change, negative = inhibition
CCOC(=O)c1c(NC(=O)c2ccc(Br)cc2)sc2c1CCCC2	inactive	
O=C(c1ccc(Cl)c(S(=O)(=O)N2CCOCC2)c1)N1CCN(c2ccccc2)CC1	inconclusive: 0.316 µM [inhibitor, full curve, poor fit]	
Cc1cc(OC(F)F)ccc1NC(=S)NCCc1ccccc1	inconclusive: 31.6 µM [inhibitor, single point]	
CC(C)c1ccc(N2C(=O)[C@@H]3Cc4ccccc4CN3C2=O)cc1	inconclusive: 0.112 µM [inhibitor, full curve, poor fit]	
O=C(c1ccco1)N1CCN(S(=O)(=O)c2ccc(Cl)s2)CC1	inconclusive: 39.8 µM [inhibitor, single point]	
C=CCn1c(C)cc(C(=O)COC(=O)COc2ccccc2C#N)c1C	inconclusive: 39.8 µM [inhibitor, single point]	
O=[N+]([O-])c1cccc(/C=N/n2c(-c3cccnc3)n[nH]c2=S)c1	inactive	
CCOc1ccc2nc(NCCNC(=O)Nc3ccccc3)c(C#N)cc2c1	inconclusive: 3.55 µM [inhibitor, partial curve]	
Cc1c(CCC(=O)O)c(=O)oc2cc(OCc3ccccc3F)ccc12	inconclusive: 0.447 µM [inhibitor, partial curve, poor fit]	
CC1Cc2cc(/C=C3/SC(=S)NC3=O)ccc2O1 (centres undefined)	inactive	
c1ccc(C[C@H]2CN=C(Nc3ccccc3)N2CCC2CCCC2)cc1	inactive	
CCC(=O)Nc1ccc2oc(-c3cccnc3)nc2c1	inconclusive: 28.2 µM [inhibitor, single point]	
Cc1nc2sccc2c(=O)n1-c1cccc(Cl)c1	inconclusive: 7.08 µM [inhibitor, single point]	
COc1cc(NC(=O)CNc2cccc(S(=O)(=O)N3CCCC3)c2)cc(OC)c1	inconclusive: 10 µM [inhibitor, partial curve]	
COc1ccc2nc(N=Nc3c(O)ccc4ccccc34)sc2c1	inactive	
O=C1N/C(=N/Nc2ccccc2)S/C1=C\c1ccccc1	inconclusive: 35.5 µM [inhibitor, single point]	
O=C(O)c1ccc(-n2cccc2/C=C2/NC(=O)N(c3cccc(Cl)c3)C2=O)cc1	inconclusive: 15.8 µM [inhibitor, partial curve]	
C=CCC[C@@H](Cc1ccc(F)cc1)C(=O)OC[C@@H](Cc1c[nH]c2ccccc12)NC(=O)[C@H](CC=C)CC(=O)NCCO	inactive	
O=C(O)CCCCN1C(=O)/C(=C\c2ccc(OCc3ccccc3)c(OCc3ccccc3)c2)SC1=S	inconclusive: 17.8 µM [inhibitor, partial curve]	
COc1ccc2[nH]cc(CCNc3ccnc(-c4ccccc4C)n3)c2c1	inactive	
OCC1(CCc2ccccc2)CCCN(CCCc2ccccc2)C1 (centres undefined)	inactive	
O=C(O)CC/C(=C\c1ccc2c(c1)OCO2)c1nc2ccccc2s1	inactive	
O=C1N=C(N2CCN(c3ccccc3)CC2)S/C1=C\c1ccco1	inconclusive: 28.2 µM [inhibitor, single point]	

Given as comma-separated lines: 4 of the compounds above.
SMILES,Potency,"activity change, negative = inhibition"
CCOC(=O)c1c(NC(=O)c2ccc(Br)cc2)sc2c1CCCC2,inactive,
O=C(c1ccco1)N1CCN(S(=O)(=O)c2ccc(Cl)s2)CC1,"inconclusive: 39.8 µM [inhibitor, single point]",
CC1Cc2cc(/C=C3/SC(=S)NC3=O)ccc2O1 (centres undefined),inactive,
Cc1nc2sccc2c(=O)n1-c1cccc(Cl)c1,"inconclusive: 7.08 µM [inhibitor, single point]",

Later entries

SMILES	Potency	activity change, negative = inhibition
O=[N+]([O-])c1ccc(-c2nc(Nc3cccc(O)c3)c3ccccc3n2)cc1	inactive	
Cc1nc2n(c(=O)c1CCN1CCC(c3noc4cc(F)ccc34)CC1)CCCC2O (centres undefined)	inconclusive: 39.8 µM [inhibitor, single point]	
O=C(O)COc1ccccc1C1C2C(=O)N(c3ccc(F)cc3)C(=O)C2ON1c1ccccc1 (centres undefined)	inactive	
Cc1ccc(NC(=O)CC2Nc3cc(C)c(C)cc3NC2=O)c(C)c1 (centres undefined)	inactive	
O=C(CN1CCN(c2ccccn2)CC1)Nc1cccc(Br)c1	inconclusive: 1.78 µM [inhibitor, partial curve, poor fit]	
O=C(NCc1cc([N+](=O)[O-])ccc1O)c1cccnc1Sc1ccc(Cl)cc1	inconclusive: 11.2 µM [inhibitor, full curve, poor fit]	
N#C/C(=C(/O)CN1CCCC1)c1nc(-c2ccccc2)cs1	inconclusive: 3.55 µM [inhibitor, partial curve]	
S=c1[nH]ncn1-c1ccccn1	inactive	
O=C1N(Cc2cccc(Cl)c2)C[C@@H]2C[C@@H](c3cccn3-c3cccnc3)N3CCC[C@@]123	inconclusive: 25.1 µM [inhibitor, partial curve]	
O=C(Nc1cc(NC(=O)c2ccccc2)c(C(=O)O)cc1C(=O)O)c1ccccc1	inconclusive: 39.8 µM [inhibitor, single point]	
O=C(CNC(=O)OCc1ccccc1)Oc1ccc2ccc(=O)oc2c1	inconclusive: 39.8 µM [inhibitor, single point]	
COc1cc(OC)cc(-c2oc(=O)c3cc(OC)c(OC)cc3c2C#CCCO)c1	inconclusive: 22.4 µM [inhibitor, single point]	
COc1ccccc1CNc1ccnc(-c2cccc(C#N)c2)n1	inconclusive: 31.6 µM [inhibitor, single point]	
CCOC(=O)c1cnc(SC)nc1Sc1ccccc1Cl		inconclusive: -37.2% [inhibitor]
COC(=O)C1=C(COc2ccc(F)cc2)NC(=O)NC1c1ccc(C)cc1C (centres undefined)	inconclusive: 2 µM [inhibitor, single point]	
CC(=O)O[C@H]1C[C@@]2(O)[C@@H](OC(=O)c3ccccc3)C3[C@@](C)([C@@H](O)C[C@H]4OC[C@@]34OC(C)=O)[C@@H](O)[C@H](OC(C)=O)C(=C1C)C2(C)C (some centres undefined)	inconclusive: 5.01 µM [inhibitor, full curve]	
O=C(c1ccco1)N1CCN(C(=O)c2ccc(CS(=O)c3ccc(F)cc3)o2)CC1 (centres undefined)	inconclusive: 0.1 µM [inhibitor, full curve, poor fit]	
S=C1NCN(Cc2ccco2)CN1c1ccccc1	inconclusive: 7.08 µM [inhibitor, single point]	
COc1ccc2[nH]c3c(c2c1)CCN1C(=O)N([C@@H](C)C(=O)NCc2ccc(F)cc2)C(=O)[C@]31C	inconclusive: 39.8 µM [inhibitor, single point]	
O=C(Nc1ccc2c(c1)N(S(=O)(=O)c1cccs1)CCC2)c1c(F)cccc1F	inconclusive: 35.5 µM [inhibitor, partial curve, poor fit]	
CCCCc1nc2cc(C(=O)N3CCCCC3COC)ccc2o1 (centres undefined)	inactive	
COc1cc(C(=O)N/N=C/c2ccc(OC)c(CN3CCN(c4ccc(F)cc4)CC3)c2)ccc1O	inactive	
CCOc1ccc(C=NC23CN4CN(CN(C4)C2)C3)cc1	inconclusive: 0.891 µM [inhibitor, single point]	
